Experimental data: PubChem BioAssay AID485314 (National Center for Advancing Translational Sciences (NCATS), 2010)
Out of some 340,000 compounds screened, about 4,500 (1.3%) were called active. This list was built around the results that the source calls inconclusive (neither active nor inactive); the mix of calls is not that of the screen. Calls follow the shape of the dose curve; as a rule, active = well fitted inhibition curve with a large enough effect; inconclusive = small, poorly fitted or top-dose-only effect, or another doubt; inactive = no such curve, though single readings can be large or run the other way. Potencies beside an inconclusive call are fits to weak or partial responses and may not hold up.

What follows are compounds tested against DNA polymerase beta (Homo sapiens) (UniProt P06746) (assay: qHTS Assay for Inhibitors of DNA Polymerase Beta). Conditions: Pol beta primer extension/strand displacement, fluorescence kinetic; activity change, negative = inhibition: at 114 µM (top of the series).
Method in brief: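 Pol beta (10 nM) and compounds were preincubated 15 min at room temperature, then 50 nM substrate (final) started primer extension/strand displacement. Reads were taken at 0 and 10 min; concentration-response data were fitted to a four-parameter Hill equation.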
% is scaled to controls: 0 for no effect and ±100 for the full control effect; potency is read from the fitted curve at half-maximal effect.

Potency, active:
C[n+]1cc2c3c(ccc2c2ccc4cc5c(cc4c21)OCO5)OCO3 7.94 µM
Cn1c(CCNC(=O)C2CCCCC2)nc2cc(NC(=O)c3cccs3)ccc21 39.8 µM
O=C1CCCC2=C1C1O[C@](c3ccsc3)(Cc3c1ccc1ccccc31)O2 3.98 µM
O=C(N/N=C/c1ccc(Sc2ccccn2)o1)c1cc2ccccc2cc1O 17.8 µM

Potency, inconclusive:
Cc1ccc(C)c(NC(=S)N(Cc2cccc(Br)c2)CC2CCC(C(=O)O)CC2)c1 (centres undefined) 89.1 µM [inhibitor, single point]
O=c1nc(/C=C/c2cccn2-c2ccc([N+](=O)[O-])cc2)cc(C(F)(F)F)[nH]1 11.2 µM [inhibitor, full curve]
COc1ccccc1-c1cc2nc(C)c(CCC(=O)NCCc3cccc(C)c3)c(C)n2n1 89.1 µM [inhibitor, single point]
Cc1cc(Cl)ccc1N(CC(=O)NCCSCc1ccco1)S(C)(=O)=O 1.58 µM [inhibitor, full curve]
O=C(O)c1cccc(-c2ccc(/C=N/Nc3nn[nH]n3)o2)c1 35.5 µM [inhibitor, partial curve]
CSc1cccc(NC(=S)N(CCCN2CCCC2)Cc2cccs2)c1 100 µM [inhibitor, single point]
CC1=C(C(=O)Nc2cc(Cl)ccc2C)C(c2sccc2C)n2ncnc2N1 (centres undefined) 100 µM [inhibitor, single point]
CC(=O)Nc1cccc(C(=O)Nc2ccccc2N2CCOCC2)c1 2.82 µM [inhibitor, full curve, poor fit]
Nc1ccc(-c2n[nH]c(=O)c3ccccc23)cc1N 79.4 µM [inhibitor, partial curve]
Cc1nn(-c2cccc(Cl)c2)c(Cl)c1/C=N/NC(=O)c1cccnc1 50.1 µM [inhibitor, partial curve, poor fit]

Reprinted at random: 2 compounds from above
Potency, inconclusive:
CC1=C(C(=O)Nc2cc(Cl)ccc2C)C(c2sccc2C)n2ncnc2N1 (centres undefined) 100 µM [inhibitor, single point]
O=c1nc(/C=C/c2cccn2-c2ccc([N+](=O)[O-])cc2)cc(C(F)(F)F)[nH]1 11.2 µM [inhibitor, full curve]

Next part.

Activity change, negative = inhibition, inconclusive:
CCOc1ccccc1NC(=O)CSc1nc2nc(-c3cccs3)cc(C(F)(F)F)c2c(=O)[nH]1 -91% [inhibitor]

Activity change, negative = inhibition, inactive:
COc1ccccc1N1CCN(C2CCCN(C(=O)c3cccc(-c4ccco4)c3)C2)CC1 (centres undefined) 27%
Cc1cc(C)c(NC(=O)Cn2c(=O)n(CCC(=O)NCc3ccccc3Cl)c(=O)c3sccc32)c(C)c1 4.82%
CC(=O)Nc1cccc(NC(=O)Cc2cccs2)c1 -13.4%
Cc1cccc(CC(=O)Nc2ccc3nc(N4CCC(C)CC4)cc(C)c3c2)c1 -7.57%
